Results are given in words; binding and its absence hold for the method and conditions named. In cells and extracts the contact can be indirect. Some results given as binding are weak or reduced against the parent protein; the word gives no strength. Blank lines part the entries; values can stand above or below the molecule they belong to.
How the values were obtained:
Experiment in all cases: co-IP; Flag-tagged Rph3A, myc-tagged GluN2A or HA-tagged PSD95 co-transfected; lysis buffer 50 mM Tris-HCl, 1 mM EDTA, 150 mM NaCl, 1% Igepal CA-630; anti-Flag or anti-myc magnetic agarose beads, 4 °C overnight; western blot; the GluN2A-CTD/PSD95 co-IP was done in the presence of WT or R9A Rph3A
[1] = molecular target: GluN2A-CTD aa 1349-1464 (mouse) (UniProt P35436)
[2] = molecular target: GluN2A-CTD aa 1389-1464 (mouse) (UniProt P35436)
[3] = molecular target: GluN2A-CTD aa 1244-1388 (mouse) (UniProt P35436)
[4] = molecular target: GluN2A-CTD aa 1244-1348 (mouse) (UniProt P35436)
[5] = molecular target: GluN2A C-terminal domain (aa 1244-1464), myc-tagged (mouse) (UniProt P35436)
[6] = molecular target: GluN2A-CTD aa 1349-1388 (mouse) (UniProt P35436)

By UniProt entry, the sequences of proteins in these tests, tags left out. Chains listed by the source or under a name are the forms on record and can include a tag or linker. Residues count along the entry.
GluN2A C-terminal domain (aa 1244-1464), myc-tagged (P35436, residues 1244-1464): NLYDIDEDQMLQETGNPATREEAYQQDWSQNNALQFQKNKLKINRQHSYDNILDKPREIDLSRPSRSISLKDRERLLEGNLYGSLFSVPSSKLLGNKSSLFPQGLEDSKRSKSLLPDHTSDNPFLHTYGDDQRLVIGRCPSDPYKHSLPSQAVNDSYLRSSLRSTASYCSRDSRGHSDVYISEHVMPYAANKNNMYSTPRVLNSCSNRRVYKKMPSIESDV
GluN2A-CTD aa 1244-1388 (P35436, residues 1244-1388): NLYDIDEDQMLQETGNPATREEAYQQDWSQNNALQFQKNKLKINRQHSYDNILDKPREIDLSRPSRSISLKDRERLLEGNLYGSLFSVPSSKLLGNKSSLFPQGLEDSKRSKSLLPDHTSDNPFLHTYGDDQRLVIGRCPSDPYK
GluN2A-CTD aa 1244-1348 (P35436, residues 1244-1348): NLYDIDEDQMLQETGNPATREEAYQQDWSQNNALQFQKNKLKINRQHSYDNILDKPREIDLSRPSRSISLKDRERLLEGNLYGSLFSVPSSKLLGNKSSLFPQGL
GluN2A-CTD aa 1349-1464 (P35436, residues 1349-1464): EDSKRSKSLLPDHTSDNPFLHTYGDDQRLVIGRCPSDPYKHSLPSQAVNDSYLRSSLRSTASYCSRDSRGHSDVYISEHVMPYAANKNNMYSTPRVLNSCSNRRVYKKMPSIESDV
GluN2A-CTD aa 1349-1388 (P35436, residues 1349-1388): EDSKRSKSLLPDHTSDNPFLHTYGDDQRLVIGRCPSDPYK
GluN2A-CTD aa 1389-1464 (P35436, residues 1389-1464): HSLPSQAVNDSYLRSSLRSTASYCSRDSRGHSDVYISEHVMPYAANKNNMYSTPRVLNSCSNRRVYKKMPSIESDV

binding [1]: binds
binding [2]: binds
binding [3]: binds
binding [4]: binds
binding [5]: binds
binding [6]: binds
Molecule: Rabphilin-3A, full length, Flag-tagged (from UniProt Q9Y2J0 1-694)

binding [5]: binds
B1: Rabphilin-3A aa 1-179 (domain or fragment, UniProt Q9Y2J0 1-179)
chain: MTDTVFSNSSNRWMYPSDRPLQSNDKEQLQAGWSVHPGGQPDRQRKQEELTDEEKEIINRVIARAEKMEEMEQERIGRLVDRLENMRKNVAGDGVNRCILCGEQLGMLGSACVVCEDCKKNVCTKCGVETNNRLHSVWLCKICIEQREVWKRSGAWFFKGFPKQVLPQPMPIKKTKPQQ

binding [5]: binds
B2: Rabphilin-3A IDR1 + ZF (aa 1-157) (domain or fragment, UniProt Q9Y2J0 1-157)
chain: MTDTVFSNSSNRWMYPSDRPLQSNDKEQLQAGWSVHPGGQPDRQRKQEELTDEEKEIINRVIARAEKMEEMEQERIGRLVDRLENMRKNVAGDGVNRCILCGEQLGMLGSACVVCEDCKKNVCTKCGVETNNRLHSVWLCKICIEQREVWKRSGAWF

Reference: publication PMC9873702
